According to article PMC3217271:
Results are given in words; binding and its absence hold for the method and conditions named. Binding seen in cells or lysates may run through a third protein. Some entries that bind do so weakly or less than the wild type.

The chains behind the UniProt entries cited, without tags or fusion partners.
UniProt Q99816: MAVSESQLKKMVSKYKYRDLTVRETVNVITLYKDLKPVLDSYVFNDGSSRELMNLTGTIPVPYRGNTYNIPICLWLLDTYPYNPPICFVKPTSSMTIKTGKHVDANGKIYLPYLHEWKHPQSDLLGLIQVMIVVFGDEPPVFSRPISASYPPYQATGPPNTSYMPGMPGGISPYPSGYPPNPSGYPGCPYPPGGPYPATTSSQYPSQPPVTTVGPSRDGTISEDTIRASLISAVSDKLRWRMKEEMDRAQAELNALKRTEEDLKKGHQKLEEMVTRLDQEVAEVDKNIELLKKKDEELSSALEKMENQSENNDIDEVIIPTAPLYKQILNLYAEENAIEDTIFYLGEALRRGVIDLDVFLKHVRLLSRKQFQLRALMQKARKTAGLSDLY
UniProt Q05128: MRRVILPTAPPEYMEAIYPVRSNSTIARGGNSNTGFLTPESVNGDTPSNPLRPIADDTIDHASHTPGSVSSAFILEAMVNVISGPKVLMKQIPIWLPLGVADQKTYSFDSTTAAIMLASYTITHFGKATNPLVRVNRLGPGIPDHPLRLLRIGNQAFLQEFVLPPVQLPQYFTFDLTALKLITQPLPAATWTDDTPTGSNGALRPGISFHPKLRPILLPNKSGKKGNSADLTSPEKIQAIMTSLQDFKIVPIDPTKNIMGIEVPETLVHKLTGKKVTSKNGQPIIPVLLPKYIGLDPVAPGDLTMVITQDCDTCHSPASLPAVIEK

Biological target: NYFP-Tsg101 (human) (UniProt Q99816)
Assay: split reporter

Substance: CYFP-eVP40-WT (from UniProt Q05128 1-326)
- binding: binds
